Taken from: PubChem BioAssay AID504804 (Drosophila RNAi Screening Center, 2011)
Aim: 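dsRNAs that improve Kc cell survival under doxorubicin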 (primary screen). System: Drosophila Kc cells. Reagents: long dsRNA against Drosophila genes, 0.5 µg dsRNA per well. Timing: 96 h (48 h knock-down, then 48 h drug). Treatment: doxorubicin 5 µg/ml for 48 h, added 48 h after dsRNA. Detection: 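Viability measured as cellular ATP by luminescence after 48 h knock-down then 48 h doxorubicin at 5 µg/ml; unnormalised plate counts for each replicate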. Scale: raw ATP luminescence: higher = more viable cells, protection from doxorubicin. Hit rule: 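Active when both duplicate wells lie at least 2 SD above the plate mean and protection is confirmed by rescreening and independent dsRNAs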.
In all, the deposit lists about 19,000 reagents; this is an unselected part of those with a known target gene and a result. Of all reagents, 47 (0.25%) are marked active. 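Signals are raw, not normalised; exact z-scores behind calls not deposited; actives needed confirmation, so some wells reaching 2 SD are inactive.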 Entries without a mark were called inactive. A plus sign joins genes that one reagent is predicted to hit.

no.	target	DRSC id	raw ATP luminescence, replicate 1	raw ATP luminescence, replicate 2
1	oc (GeneID 31802)	DRSC18808	41400	44550
2	CG3735 (GeneID 37803)	DRSC04411	62170	54147
3	CG6454 (GeneID 42904)	DRSC16044	51107	49520
4	CG15201 (GeneID 32053)	DRSC19648	3.81e5	3.74e5
5	Ent3 (GeneID 39461)	DRSC09822	58573	55377
6	CR46300 (GeneID 3885581)	DRSC12467	82643	70910
7	CG6933 (GeneID 40214)	DRSC10751	39747	19467
8	cN-IIIB (GeneID 37875)	DRSC04359	69793	49927
9	Nufip (GeneID 40043)	DRSC10397	23533	20117
10	CG17684 (GeneID 3355066)	DRSC07724	1.92e5	1.76e5
11	CG17684 (GeneID 3355066)	DRSC21166	4.08e5	3.50e5
12	pzg (GeneID 40351)	DRSC11848	29550	23773
13	Cp7Fa (GeneID 3885650)	DRSC18032	42220	49370
14	Cp7Fa (GeneID 3885650)	DRSC18033	32140	38840
15	CG13043 (GeneID 39796)	DRSC09924	38630	28500
16	CG34011 (GeneID 3885619)	DRSC00888	2.97e5	2.87e5
17	CG18063 (GeneID 34943)	DRSC01968	78057	73507
18	Cnep1r2 (GeneID 39204)	DRSC10950	29753	41337
19	PrBP (GeneID 34196)	DRSC03189	40367	60277
20	CG5592 (GeneID 38662)	DRSC10524	62420	70307
21	Ak1 (GeneID 39396)	DRSC10248	72267	67977
22	CG15498 (GeneID 42548)	DRSC15040	38910	38150
23	CG8851 (GeneID 33575)	DRSC00718	22460	34887
24	CG7910 (GeneID 40956)	DRSC16341	47193	43367
25	CG13575 (GeneID 37883)	DRSC04211	55947	54157
26	CG15012 (GeneID 38529)	DRSC08465	42497	38110
27	CG15483 (GeneID 34687)	DRSC02493	57883	62790
28	CG6340 (GeneID 32482)	DRSC19987	2.37e5	2.20e5
29	Or94b (GeneID 42712)	DRSC16773	62690	53060
30	MICU1 (GeneID 33999)	DRSC02752	1.13e5	73053
31	P5cr (GeneID 42284)	DRSC16782	44990	38730
32	Surf1 (GeneID 44498)	DRSC11295	72630	74403
33	Surf1 (GeneID 44498)	DRSC11394	41740	41993
34	Mlc1 (GeneID 43323)	DRSC16740	35890	37470
35	CG32432 (GeneID 40310)	DRSC11703	29590	29807
36	CG32432 (GeneID 40310)	DRSC11704	43280	39970
37	CG32432 (GeneID 40310)	DRSC11744	70020	59697
38	CG14841 (GeneID 41735)	DRSC14965	92290	57200
39	qtc (GeneID 33739)	DRSC02364	1.15e5	75687
40	qtc (GeneID 33739)	DRSC02365	23807	24997
41	PCNA2 (GeneID 35257)	DRSC02030	55467	54543
42	CG8508 (GeneID 41620)	DRSC16436	49523	22037
43	CG13083 (GeneID 35230)	DRSC02187	62320	64327
44	robl37BC (GeneID 35166)	DRSC02472	46283	34727
45	CG30378 (GeneID 246577)	DRSC05071	74650	93313
46	CG13559 (GeneID 37720)	DRSC04197	47140	48370
47	CG42269 (GeneID 38689)	DRSC10670	87427	93557
48	CG42269 (GeneID 38689)	DRSC10672	73623	85493
49	CG12825 (GeneID 35726)	DRSC06174	51120	1.00e5
50	Snx3 (GeneID 41551)	DRSC16027	44197	58960
51	Dys + snoRNA:Me18S-A1374	DRSC16232	38260	45190
52	Amt (GeneID 41841)	DRSC16055	73650	67760
53	mRpS11 (GeneID 42061)	DRSC15732	60840	71440
54	Snp (GeneID 37511)	DRSC04524	56230	58673
55	CG34187 (retired record) (GeneID 5740579)	DRSC05543	81763	92277
56	Muc68D (GeneID 39326)	DRSC10569	45117	41933
57	br (GeneID 44505)	DRSC17691	2.80e5	2.31e5
58	br (GeneID 44505)	DRSC17789	50660	70860
59	br (GeneID 44505)	DRSC18743	13670	18040
60	br (GeneID 44505)	DRSC18744	21850	24500
61	Npl4 (GeneID 43091)	DRSC15616	65510	62710
62	CG11807 (GeneID 36683)	DRSC06087	57930	70960
63	CG7692 (GeneID 39934)	DRSC10902	56237	45580
64	CG14367 (GeneID 41676)	DRSC14829	88280	81490
65	CG10222 (GeneID 39504)	DRSC09714	67060	65917
66	CG3287 (retired record) (GeneID 48441)	DRSC04991	49137	88647
67	CG31781 (retired record) (GeneID 35023)	DRSC02431	1.02e5	65000
68	CG31781 (retired record) (GeneID 35023)	DRSC02432	78093	1.05e5
69	CG2931 (GeneID 40673)	DRSC12324	62103	69303
70	SMSr (GeneID 38823)	DRSC10998	37370	46283
71	SMSr (GeneID 38823)	DRSC10999	85963	90220
72	Nmdmc (GeneID 47895)	DRSC16760	86453	42250
73	CG2685 (GeneID 31259)	DRSC18463	33100	32430
74	e(y)2 (GeneID 45848)	DRSC19640	2.58e5	2.10e5
75	VhaPPA1-1 (GeneID 45247)	DRSC16170	56237	30913
76	CG9919 (GeneID 32598)	DRSC20219	3.74e5	3.85e5
77	CG31681 (GeneID 318882)	DRSC00107	2.82e5	2.80e5
78	CG14106 (GeneID 39506)	DRSC10109	65293	53263
79	cwo (GeneID 44669)	DRSC17072	59970	53840
80	CG8195 (GeneID 36725)	DRSC07103	59430	81313
81	clos (GeneID 5740204)	DRSC06240	36047	68450
82	clos (GeneID 5740204)	DRSC06241	42267	75183
83	clos (GeneID 5740204)	DRSC06778	38950	79807
84	CG31468 (GeneID 251937)	DRSC13637	2.44e5	2.91e5
85	Bx (GeneID 32846)	DRSC19350	2.16e5	1.63e5
86	Cyp6a19 (GeneID 36662)	DRSC07379	70920	66143
87	bard (GeneID 42161)	DRSC14796	52190	64790
88	CG3358 (GeneID 35604)	DRSC04992	70743	59767
89	Manf (GeneID 41983)	DRSC14091	40930	36740
90	Zif (GeneID 40795)	DRSC12514	57440	21870
91	CG13791 (retired record) (GeneID 34034)	DRSC02295	21893	22500
92	Idh3a (GeneID 32940)	DRSC19446	3.47e5	2.99e5
93	Coprox (GeneID 44701)	DRSC01996	94940	67953
94	CG34228 (GeneID 5740377)	DRSC05300	81267	1.03e5
95	CG7916 (GeneID 34800)	DRSC01901	78127	83880
96	Lamtor2 + CG30120	DRSC05726	1.12e5	98363
97	CG8677 + CG31626	DRSC01838	95463	67467
98	scpr-A + scpr-C + scpr-B	DRSC15715	56187	48140
99	Pss (GeneID 40281)	DRSC11757	68567	62330
100	Tim17a2 (GeneID 40632)	DRSC12252	50920	52983
101	CG4074 (GeneID 40290)	DRSC11752	76133	85083
102	mtm (GeneID 33845)	DRSC03576	96970	53533
103	Mtpbeta (GeneID 37784)	DRSC04663	60453	51687
104	CG3294 (GeneID 33677)	DRSC00590	1.03e5	81900
105	Cyp6a17 (GeneID 45556)	DRSC07378	72223	57700
106	Jhbp3 (GeneID 40611)	DRSC12247	57923	60570
107	brv3 (GeneID 31246)	DRSC18657	40420	42030

18 of these entries, reformatted:
| target | DRSC id | raw ATP luminescence, replicate 1 | raw ATP luminescence, replicate 2 |
| --- | --- | --- | --- |
| CG11807 (GeneID 36683) | DRSC06087 | 57930 | 70960 |
| CG7692 (GeneID 39934) | DRSC10902 | 56237 | 45580 |
| CG14367 (GeneID 41676) | DRSC14829 | 88280 | 81490 |
| CG10222 (GeneID 39504) | DRSC09714 | 67060 | 65917 |
| CG3287 (retired record) (GeneID 48441) | DRSC04991 | 49137 | 88647 |
| CG31781 (retired record) (GeneID 35023) | DRSC02431 | 1.02e5 | 65000 |
| CG31781 (retired record) (GeneID 35023) | DRSC02432 | 78093 | 1.05e5 |
| CG2931 (GeneID 40673) | DRSC12324 | 62103 | 69303 |
| SMSr (GeneID 38823) | DRSC10998 | 37370 | 46283 |
| SMSr (GeneID 38823) | DRSC10999 | 85963 | 90220 |
| Nmdmc (GeneID 47895) | DRSC16760 | 86453 | 42250 |
| CG2685 (GeneID 31259) | DRSC18463 | 33100 | 32430 |
| e(y)2 (GeneID 45848) | DRSC19640 | 2.58e5 | 2.10e5 |
| VhaPPA1-1 (GeneID 45247) | DRSC16170 | 56237 | 30913 |
| CG9919 (GeneID 32598) | DRSC20219 | 3.74e5 | 3.85e5 |
| CG31681 (GeneID 318882) | DRSC00107 | 2.82e5 | 2.80e5 |
| CG14106 (GeneID 39506) | DRSC10109 | 65293 | 53263 |
| cwo (GeneID 44669) | DRSC17072 | 59970 | 53840 |
